Leishmania in macrophages: 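Cell assay of Leishmania donovani living inside macrophages; the read-out is not stated. Tested at 30 µM. Higher reads as stronger inhibition (inferred: compounds with an IC50 in retests scored well above the rest). About 69,000 compounds were tested under these conditions; 1.5% (about 1,000) showed 50% or more at least once.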
CoaBC: 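Coenzyme A biosynthesis protein CoaBC, Mycobacterium tuberculosis (UniProt P9WNZ1). Enzyme assay of CoaBC with a phosphate dye (Biomol Green) read at 650 nm. Concentration: 30 µM. Higher reads as stronger inhibition, judged from the few compounds that gave an IC50. Most strong results did not repeat in a second test. Size under these conditions: about 67,000 compounds, about 40 of them at 50% or above in at least one test.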

Protein sequences, listed by entry. Tags and fused reporters are not part of them.
UniProt P9WNZ1, whole entry: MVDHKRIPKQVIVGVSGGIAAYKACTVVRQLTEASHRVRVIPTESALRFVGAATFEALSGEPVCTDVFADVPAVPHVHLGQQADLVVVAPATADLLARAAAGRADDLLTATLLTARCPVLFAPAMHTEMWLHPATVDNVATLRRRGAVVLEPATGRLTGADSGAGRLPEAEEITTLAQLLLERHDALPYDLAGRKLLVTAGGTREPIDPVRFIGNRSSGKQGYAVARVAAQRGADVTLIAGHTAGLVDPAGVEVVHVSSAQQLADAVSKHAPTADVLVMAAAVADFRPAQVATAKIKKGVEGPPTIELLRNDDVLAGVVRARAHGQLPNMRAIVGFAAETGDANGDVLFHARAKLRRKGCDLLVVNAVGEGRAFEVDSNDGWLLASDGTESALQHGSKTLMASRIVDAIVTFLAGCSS

Values are the deposited “Percent Effect”, in %. The controls that fix the scale are not given in the record; negative values are as filed. Compounds were drawn at random from those tested, without regard to their results. Two or more numbers in one place are separate tests of the same structure; such repeats can differ widely.

- COc1cccc(CN2CCN3C(=O)NC[C@H]3C2)n1 : CoaBC: 6.452%
- O=C1CCN(CCCS(=O)(=O)c2ccc(Cl)cc2)CCN1 : Leishmania in macrophages: 5.337%; CoaBC: 0%
- CC(C)C1Nc2ccccc2C(=O)N1CC(=O)Nc1nc2c(s1)CCC2 (stereo not given) : Leishmania in macrophages: 37.79%; CoaBC: 3.038%
- CC(C(=O)NC1CCCCC1)N1CCc2[nH]nc(C(F)(F)F)c2C1 (stereo not given) : Leishmania in macrophages: 13.26%; CoaBC: 6.746%
- c1ccc(CC2(CNCc3ncc[nH]3)CCC2)cc1 : Leishmania in macrophages: 32.95%; CoaBC: -8.065%
- CC(C)NC(=O)N1CCC2(CC(C(=O)NCc3cccnc3)=NO2)C1 (stereo not given) : Leishmania in macrophages: -23.12%; CoaBC: 5.203%
- CC(=O)N1C[C@H](NS(=O)(=O)N2CCCC2)[C@@H](c2ccc(C)o2)C1 : Leishmania in macrophages: 9.666%; CoaBC: 6.638%
- CC(C)(CN1CCC2(CCOCC2)CC1)N1CCOCC1 : Leishmania in macrophages: -17.73%; CoaBC: 0.994%
- CN(C)CCOCC1CN(CC2CCOCC2)Cc2nnn(C)c21.O=C(O)C(F)(F)F.O=C(O)C(F)(F)F (stereo not given) : Leishmania in macrophages: 0.1469%
- COC(=O)C(NC(=O)c1cc(F)cc(F)c1)c1cccnc1 (stereo not given) : Leishmania in macrophages: -0.2281%; CoaBC: 3.406%
- Cc1nc(C2CCCN2CCCS(=O)(=O)N(C)C)no1 (stereo not given) : Leishmania in macrophages: 5.37%; CoaBC: 2.394%
- Cc1ccc(C(=O)NCC(O)c2cnn(C)c2)c(Br)c1 (stereo not given) : Leishmania in macrophages: -1.076%; CoaBC: 0%
- CC(C)N1CCc2c(C#N)c(NCc3ccco3)n3cnnc3c2C1 : Leishmania in macrophages: 9.946%; CoaBC: 0.135%
- CCc1noc(CNc2nc(-c3cccnc3)nc3c2CCNCC3)n1 : Leishmania in macrophages: 27.11%; CoaBC: -10.91%
- CN(C)C(=O)CN1CCCCC1c1nc(N)ncc1-c1ccccc1 (stereo not given) : Leishmania in macrophages: 21.49%; CoaBC: 1.036%
- CC(=O)N1CCC(N2CC(Cc3nccc4ccn(C)c34)C2)CC1 : Leishmania in macrophages: 13.43%; CoaBC: 5.576%
- CC(C)NC(=O)N1CCN2C(=O)OC[C@H]2C1 : CoaBC: 11.2%
- CC(C)(C)c1nc(C(C)(C)NC(=O)C2CC(=O)N(CC3CC3)C2)no1 (stereo not given) : Leishmania in macrophages: 16.32%; CoaBC: 1.531%
- c1coc(CN2C[C@@H]3OCCN(CC4CCCO4)[C@@H]3C2)c1 (stereo not given in full) : CoaBC: 7.099%
- CCc1cc(CN(C)C(=O)c2cnc3c(c2)nc(N)n3CC)on1 : Leishmania in macrophages: 12.25%; CoaBC: -0.8872%
- Cc1cc(C)n(C2CCCN(C(=O)c3c[nH]c(=O)c(Cl)c3)C2)n1 (stereo not given) : Leishmania in macrophages: 11.11%; CoaBC: -0.216%
- CC(=O)NCC(=O)N1CCN(Cc2cccnc2)c2ncccc2C1 : Leishmania in macrophages: 5.643%; CoaBC: 4.326%
- O=C1CC(c2ccncc2)C2(CCN(Cc3nccs3)CC2)N1 (stereo not given) : Leishmania in macrophages: 20.24%; CoaBC: 2.101%
- CC(C)Nc1ncc(-c2ccncc2)c([C@@H]2CCCO2)n1 : Leishmania in macrophages: 19.78%; CoaBC: 9.557%
- Cn1cnc2c1CCN(Cc1nc(COc3ccc(F)cc3)no1)C2 : Leishmania in macrophages: 5.674%; CoaBC: 0.5008%
- CN(Cc1cn2ccccc2n1)C1CCCN(c2cccnn2)C1 (stereo not given) : Leishmania in macrophages: 7.407%; CoaBC: 1.318%
- [H][C@@]12C[C@H](C(=O)Nc3cnccn3)CN(S(C)(=O)=O)[C@]1([H])CCO2 : Leishmania in macrophages: 10.48%
- CCn1cncc1CNc1ccc(-c2nc(CC(C)C)no2)cn1 : Leishmania in macrophages: 39.05%; CoaBC: 3.537%
- CCOC1COC2(CCN(Cc3cccc(C#N)c3)CC2)C1.O=C(O)C(F)(F)F (stereo not given) : Leishmania in macrophages: -4.576%
- CCOC(=O)Cn1cnc2nc3n(c2c1=O)CCC3 : Leishmania in macrophages: 0.3286%; CoaBC: 0%
- CCOCCNS(=O)(=O)c1ccc2c3c1CCCN3C(=O)CO2 : Leishmania in macrophages: -51.69%; CoaBC: -3.137%
- COc1ccc(-n2cc(CNC(=O)c3ccc[nH]3)nn2)cc1 : Leishmania in macrophages: 5.004%; CoaBC: 11.86% and 69.97%
- O=C(O)CC(O)(CC(=O)O)C(=O)O.[H][C@]12CC[C@](O)(c3ccc(C)cn3)[C@@]1([H])CN(Cc1ccc(OC)cc1F)C2 : Leishmania in macrophages: 26.22%
- CNC(=O)c1cc2c(nc1N(C)C)CCN(c1ncc(C)cn1)CC2 : CoaBC: 7.55%
- COc1ccc(NC(=O)CCC2CCCN(Cc3ncon3)C2)cc1Cl (stereo not given) : Leishmania in macrophages: 13.82%; CoaBC: -16.96%
- CC(C)(Cn1cnc(-c2ccccc2)c1-c1ccco1)N1CCOCC1 : Leishmania in macrophages: 9.304%; CoaBC: 1.985%

Once more, the final 2:

* COc1ccc(NC(=O)CCC2CCCN(Cc3ncon3)C2)cc1Cl (stereo not given) : Leishmania in macrophages: 13.82%; CoaBC: -16.96%
* CC(C)(Cn1cnc(-c2ccccc2)c1-c1ccco1)N1CCOCC1 : Leishmania in macrophages: 9.304%; CoaBC: 1.985%

Data taken from ChEMBL document CHEMBL3988442, “University of Dundee, Small-Polar-MMV Screening Library” (2021).